# Measured values reported in BindingDB's records for doi:10.1016/0024-3205(76)90375-1 (1976).
# By UniProt entry, the sequences of proteins in these tests, tags left out.
# UniProt P32305, whole entry: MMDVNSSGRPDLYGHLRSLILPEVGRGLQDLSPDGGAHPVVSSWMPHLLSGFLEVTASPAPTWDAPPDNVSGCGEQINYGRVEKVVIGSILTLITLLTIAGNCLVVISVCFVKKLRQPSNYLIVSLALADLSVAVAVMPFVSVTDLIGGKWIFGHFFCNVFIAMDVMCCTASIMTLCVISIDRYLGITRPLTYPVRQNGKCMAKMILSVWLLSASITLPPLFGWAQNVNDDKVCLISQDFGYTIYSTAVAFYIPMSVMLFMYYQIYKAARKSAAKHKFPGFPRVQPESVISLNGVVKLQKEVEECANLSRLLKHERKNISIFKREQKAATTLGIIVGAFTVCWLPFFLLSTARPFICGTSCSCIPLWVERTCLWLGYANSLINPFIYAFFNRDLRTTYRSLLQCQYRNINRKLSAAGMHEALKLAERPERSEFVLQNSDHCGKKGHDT
# Several values for one entry are separate records, joined by “and”; a condition that tells them apart may be missing. Equal values may be shown once.
# Biological target: 5-hydroxytryptamine receptor 7 (Rattus norvegicus, UniProt P32305)
row,SMILES,Ki
1,CN1CC[C@]23c4c5ccc(O)c4O[C@H]2[C@@H](O)C=C[C@H]3[C@H]1C5,> 10 µM
2,"CC(C)NC[C@H](O)COc1cccc2ccccc12 [Propanolol,(+/-)]",5 µM and 7 µM
